For two substances, binding results are on record in paper PMC7575537.

By UniProt entry, the sequences of proteins in these tests, tags left out.
UniProt P06537: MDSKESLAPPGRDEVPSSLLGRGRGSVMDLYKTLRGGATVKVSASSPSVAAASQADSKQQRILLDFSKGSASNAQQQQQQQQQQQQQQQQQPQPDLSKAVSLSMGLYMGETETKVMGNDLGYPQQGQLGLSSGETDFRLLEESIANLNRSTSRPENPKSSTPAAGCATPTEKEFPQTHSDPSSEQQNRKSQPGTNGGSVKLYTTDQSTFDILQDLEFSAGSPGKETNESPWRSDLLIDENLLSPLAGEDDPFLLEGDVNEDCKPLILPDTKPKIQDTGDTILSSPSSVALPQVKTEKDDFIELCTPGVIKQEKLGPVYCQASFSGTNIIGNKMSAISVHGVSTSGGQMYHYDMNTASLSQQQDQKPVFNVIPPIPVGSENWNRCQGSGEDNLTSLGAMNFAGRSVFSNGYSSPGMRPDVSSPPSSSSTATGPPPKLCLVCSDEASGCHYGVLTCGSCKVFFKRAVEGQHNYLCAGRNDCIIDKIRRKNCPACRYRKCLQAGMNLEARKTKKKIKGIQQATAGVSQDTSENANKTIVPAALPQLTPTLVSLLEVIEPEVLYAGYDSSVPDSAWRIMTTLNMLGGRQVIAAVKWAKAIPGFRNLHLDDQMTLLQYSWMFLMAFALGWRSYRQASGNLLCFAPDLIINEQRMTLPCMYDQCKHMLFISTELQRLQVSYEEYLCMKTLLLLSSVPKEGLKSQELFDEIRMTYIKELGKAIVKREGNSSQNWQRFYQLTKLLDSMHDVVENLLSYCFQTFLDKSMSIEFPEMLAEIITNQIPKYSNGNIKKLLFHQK
UniProt P63158: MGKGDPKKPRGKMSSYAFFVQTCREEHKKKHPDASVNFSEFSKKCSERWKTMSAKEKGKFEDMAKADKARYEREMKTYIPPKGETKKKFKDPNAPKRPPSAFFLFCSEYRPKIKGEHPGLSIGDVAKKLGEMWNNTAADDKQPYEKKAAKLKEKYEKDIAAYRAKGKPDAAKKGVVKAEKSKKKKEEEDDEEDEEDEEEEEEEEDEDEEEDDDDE

For experiment [1], the target named is glucocorticoid receptor (mouse (endogenous in heart tissue)) (UniProt P06537). Nature of the experiment: co-IP; WT mouse heart tissue lysates (neonatal, 2-week-old and 12-week-old); 1 mg precleared lysate, overnight at 4 °C with anti-HMGB1 or anti-GR antibody coupled to Protein A/G PLUS-Agarose; normal mouse or rabbit IgG as control; western blot. (Immunoblotting shows a protein as a band on a membrane.)

Experiment [2] has as its target High-mobility group box 1 (mouse (endogenous in heart tissue)) (UniProt P63158). The description is as above.

No constants are given. Whether binding was seen depends on the method and setting. Binding seen in cells or lysates may run through a third protein. Some results given as binding are weak or reduced against the parent protein; the word gives no strength.

Turning to “High-mobility group box 1 (from UniProt P63158 1-215)”, the binding result in experiment [1] is on record as “binds”.
In the case of “glucocorticoid receptor (from UniProt P06537 1-792)”, the binding result in experiment [2] was “binds”.
